Experimental data from the supplement of paper PMC6078165.
Values are relative to the signal before dosing, not to a vehicle control; the signal also falls without drug.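 Fibroblast labels name human fibroblasts: mostly primary ones from tissues such as uterus (C12385, HUF), lung (H6013), bone (Hs27A), adrenal (HADF) and skin (WS1), plus mammary HMF and breast cancer-associated Hs343T. The cancer cells are basal-like or mesenchymal-like triple-negative breast cancer lines. The paper calls a changed response a hit when it shifts by more than 3x the replicate standard deviation. The tissue of the other fibroblasts is not given here.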

Tested on: Hs578T
Test: relative JC-1 red fluorescence (viability) vs pre-drug, coculture with fibroblast (fraction); higher = more viable cancer cells
Procedure: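 JC-1 labelled TNBC cells cocultured 1:1 (1,500 cells each) with CellTrace Violet stained primary or stromal fibroblasts in 384-well plates in FluoroBrite medium, treated with one of 42 anticancer drugs at 0.1, 1, 10 or 100 uM. JC-1 red fluorescence (mitochondrial integrity in cancer cells only) was read by plate reader every 8 h for 72 h. Values are normalised to each well's pre-drug value. The stock of one drug was tenfold lower, so its dose labels may be too high.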

CCCCCOC(=O)Nc1nc(=O)n([C@@H]2O[C@H](C)[C@@H](O)[C@H]2O)cc1F [Capecitabine]
relative JC-1 red fluorescence
Conditions	8 h	16 h	24 h	32 h	40 h	48 h	56 h	64 h	72 h
0.1 µM	0.969	0.854	0.776	0.732	0.652	0.602	0.565	0.511	0.491
1 µM	0.913	0.762	0.692	0.646	0.578	0.524	0.498	0.458	0.436

relative JC-1 red fluorescence
Conditions	8 h	16 h	24 h	32 h	40 h	48 h	56 h	64 h	72 h
0.1 µM, coculture fibroblast: C12385	0.834	0.713	0.649	0.553	0.493	0.454	0.426	0.421	0.417
0.1 µM, coculture fibroblast: H6013	0.8032	0.752	0.694	0.661	0.619	0.607	0.585	0.576	0.547
0.1 µM, coculture fibroblast: H6019	0.775	0.675	0.609	0.518	0.474	0.444	0.409	0.392	0.367
0.1 µM, coculture fibroblast: H6076	0.97	0.883	0.826	0.806	0.764	0.747	0.724	0.717	0.708
0.1 µM, coculture fibroblast: H6231	0.8985	0.792	0.724	0.696	0.635	0.616	0.576	0.573	0.571
0.1 µM, coculture fibroblast: HADF	0.901	0.817	0.777	0.749	0.73	0.711	0.684	0.682	0.66
0.1 µM, coculture fibroblast: HCFa	0.822	0.734	0.658	0.595	0.524	0.492	0.446	0.425	0.386
0.1 µM, coculture fibroblast: HCPF	0.902	0.824	0.775	0.763	0.708	0.701	0.685	0.655	0.649
0.1 µM, coculture fibroblast: HHSteC	0.854	0.749	0.6742	0.605	0.539	0.505	0.474	0.444	0.407
0.1 µM, coculture fibroblast: HMF	0.881	0.808	0.74	0.706	0.641	0.616	0.5789	0.5593	0.548
0.1 µM, coculture fibroblast: HPFa	0.917	0.825	0.761	0.713	0.678	0.643	0.604	0.584	0.54
0.1 µM, coculture fibroblast: HUF	0.874	0.737	0.695	0.586	0.518	0.479	0.449	0.4398	0.43
0.1 µM, coculture fibroblast: Hs27A	0.90428	0.8269	0.7583	0.6955	0.6389	0.6181	0.585	0.569	0.523
0.1 µM, coculture fibroblast: Hs343T	0.964	0.834	0.765	0.7361	0.6519	0.621	0.581	0.549	0.538
0.1 µM, coculture fibroblast: WS1	0.793	0.687	0.626	0.537	0.481	0.452	0.421	0.414	0.409
1 µM, coculture fibroblast: C12385	0.8528	0.75	0.679	0.5996	0.532	0.503	0.477	0.465	0.459
1 µM, coculture fibroblast: H6013	0.918	0.838	0.795	0.763	0.726	0.709	0.6863	0.6901	0.6727
1 µM, coculture fibroblast: H6019	0.791	0.6939	0.679	0.602	0.573	0.552	0.525	0.503	0.48
1 µM, coculture fibroblast: H6076	0.901	0.784	0.747	0.7316	0.6862	0.684	0.668	0.674	0.672
1 µM, coculture fibroblast: H6231	0.903	0.821	0.727	0.702	0.639	0.616	0.584	0.567	0.563
1 µM, coculture fibroblast: HADF	0.9232	0.843	0.791	0.747	0.714	0.69	0.657	0.647	0.626
1 µM, coculture fibroblast: HCFa	0.8598	0.7423	0.69507	0.643	0.593	0.575	0.541	0.529	0.494
1 µM, coculture fibroblast: HCPF	0.889	0.764	0.7633	0.731	0.68	0.666	0.664	0.63	0.624
1 µM, coculture fibroblast: HHSteC	0.8937	0.786	0.743	0.697	0.643	0.615	0.584	0.558	0.528
1 µM, coculture fibroblast: HMF	0.884	0.748	0.706	0.675	0.615	0.595	0.562	0.537	0.525
1 µM, coculture fibroblast: HPFa	0.927	0.798	0.729	0.68	0.639	0.599	0.567	0.544	0.498
1 µM, coculture fibroblast: HUF	0.855	0.716	0.6587	0.554	0.488	0.456	0.423	0.411	0.405
1 µM, coculture fibroblast: Hs27A	0.909	0.897	0.83	0.81	0.77	0.766	0.736	0.742	0.701
1 µM, coculture fibroblast: Hs343T	0.945	0.786	0.717	0.678	0.6056	0.5644	0.5214	0.492	0.484
1 µM, coculture fibroblast: WS1	0.831	0.6898	0.642	0.548	0.489	0.467	0.438	0.432	0.431
